Source: PubChem BioAssay AID1347426 (Functional Genomics Laboratory (NCATS/FGL), 2020)
The campaign covered roughly 31,000 sequences. About 1,400 (4.5%) were called active.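 The calls were made as follows: active = median seed-adjusted z-score above 1 or below -1; inactive = the rest.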 This is one part of the list.

Test: Novel Modifiers of Survival Motor Neuron (SMN) Protein: Gene Identification via Genome-wide siRNA Screen;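 also: luminescence tracks full-length SMN protein made from the SMN2 reporter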
Conditions: HEK293T SMN2-luciferase reporter, siRNA knockdown, 72 h; actives lie on both sides
Method in brief: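 Genome-wide siRNA screen (10418 genes, 3 siRNAs each, 1 pmol per well) by reverse transfection in HEK293T cells stably carrying an SMN2-luciferase reporter; luminescence after 72 hours, normalized to negative-control siRNA, log10-transformed, MAD-scored.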

Sequence	median seed-adjusted z-score
GACUUACUAUUAUCAAGGUTT against TMPRSS11B	inactive: -0.545
GCAAAUACGGUUUACUCCATT against SLAMF7	inactive: -0.478
GAUCCACCUUAUACUCAUATT against EPS8	inactive: 0
GACUGAAUUUUGUACUGAATT against CLCA3	inactive: 0.424
GCAUGAACAUUGCAUUGCATT against GPN3	inactive: -0.796
CCCUGUCAGGUAUCAAAGATT against MYBL2	inactive: 0.592
CAUCAUGACAUGUAUGAUUTT against PAFAH1B3	inactive: -0.381
GAACUAUGUUUAACUUGGATT against NOTO	inactive: -0.193
GUGUUGGACUGGAUUGAAATT against KALRN	inactive: 0.305
CAACAGUUGCGUCACAGAATT against BNIP1	inactive: 0.259
GAACUUUGAUGACGAGUGATT against RAD23A	active: -1.13
CCACUCUUCUGAUCAGAAATT against HSD11B1	inactive: -0.174
CGGUUGUCAUAUUUAUUGATT against ZNF764	inactive: 0.184
GUAAAGUUGUUGACAGUGUTT against AKTIP	inactive: -0.194
CACUGUACAGGAUACAUCATT against ARNT2	inactive: -0.244
GGCUAUGACGGGAAGGAGATT against PTPN7	inactive: -0.189
AAUUGGAGCUGAUUUCUUATT against GOT1	inactive: 0.0103
GCUACACGGACAUCCCAAATT against RTEL1	inactive: 0.458
GAAGAGUGCUUGAAAUUUUTT against GFRA1	inactive: 0.125
GGAUGAAGCUAGAAUUAAATT against BHMT2	inactive: -0.0704
CGCUUUUCGUUGUAAAUAUTT against NKX2-2	inactive: -0.0805
AAACGGGAGUGUGCAGUCATT against TMED1	inactive: 0
GAACAAAGGUCAGUUCUUATT against PHF10	inactive: -0.199

Sequence	median seed-adjusted z-score
GACUCUUAGAGGCAUCUAATT against TNKS	inactive: 0.193
GGAACAUCGUCUUGAGCAATT against ECHDC3	inactive: 0.378
ACCACAUGGUGUACCGGAUTT against PSCD2	inactive: -0.126
CCACGAAGCCUACAAGCAATT against NQO2	inactive: -0.0723
GAAUAGUAAAGAACCUUGATT against CHAT	inactive: -0.109
CUACAAGAGUGGGAAGUUUTT against UBE2M	inactive: 0.0974
GGAUCAUCAAGGUGAAACATT against CCL8	inactive: 0.436
GGAUCCAUCAUAUAGUUCATT against PRKAA1	inactive: 0.0423
GCACUUACCAGAGCUUGAATT against SLC25A30	inactive: 0
AGUCCUUUAUUAAGCGCAATT against INCENP	inactive: -0.339
GAAUAACGAUCCCAGAUAATT against IL31RA	inactive: 0.36
GGAACGGGAUUUAUUAAAATT against PDE4D	inactive: 0
GGAAAAUCAUCUUAUCAGATT against TEAD1	active: 1.31
GGAAAUACAUAUCGAAUGATT against GNE	inactive: 0.393
GGAGUAUCUUCAAGUACAATT against GNG5	inactive: -0.215
GACUAAUGAACUACUAAAATT against HMMR	inactive: 0.389
GGUACCAAAUGAUUACGUATT against ABI2	inactive: -0.0392
CACACUCACUUAAAGAAAATT against NRGN	inactive: -0.381
CCAACAAGCUGUCUCCCUATT against CENPB	inactive: 0.292
AUAUCAGGGUGAAGACUCATT against ZNF22	inactive: 0.47
CGGCUUAAUUCAAGGAGUATT against HIAT1	inactive: -0.0612
GCUUAUUCCUUGUGCAGAATT against KLB	inactive: 0.221
GGUCUAUGAUGGUGACGAUTT against EBP	inactive: 0.017

Some of the entries above, set out differently.
Sequence | median seed-adjusted z-score
GGAACAUCGUCUUGAGCAATT against ECHDC3 | inactive: 0.378
ACCACAUGGUGUACCGGAUTT against PSCD2 | inactive: -0.126
CCACGAAGCCUACAAGCAATT against NQO2 | inactive: -0.0723
GAAUAGUAAAGAACCUUGATT against CHAT | inactive: -0.109

(further entries)

Sequence	median seed-adjusted z-score
GCAAACUACUUGGAUAGUATT against ADAM9	inactive: 0
GCAGUACCUCAAAUCGUUUTT against PPP1R12A	inactive: -0.103
GCUAUAAUCUUACUCAACATT against ZNF546	inactive: 0.497
GAAUGUAUCCGGCACGAGATT against UBE2Z	inactive: 0.0572
GAUCAUGGAUUAUAGCCUUTT against PIP5K1B	inactive: 0.0917
CCGGCAAAUUCAUCUCUUUTT against CASZ1	inactive: 0.263
GCUUUCAUCGGCUCCAUAATT against CARM1	inactive: 0.317
GGAUAUUUGCAAGACGAGATT against KCNT1	inactive: 0.379
GCAGAUUGAUGGUAUUGGATT against FBXO4	inactive: -0.0767
GCAUUCCGCUCAAAGGUCATT against GPR171	inactive: -0.449
CAAAGAUAGUGAUUGGUUATT against EIF4E	inactive: -0.404
GGUCGGAGAUUUGCAAGGATT against LTBP3	inactive: -0.0236
GGAUCUAAUCUUAGAUGUATT against POLR2H	active: -2.74
CCUUAUCGAUAUUAUGAGATT against CPEB2	inactive: -0.00928
GAGCAGUACAGAACAGGAATT against HAAO	inactive: 0.214
ACAACUUUGCUAUCCAGGATT against LOXL4	inactive: -0.591
GAGCUAGCGAAUAACCUUATT against DDX42	active: -2.13
GAAAGAGGAUUAAAGAGAATT against DECR2	inactive: 0
GCCGUAUGAGUGUACCGAATT against ZNF300	inactive: -0.302
GAACUGCACCAAAGAAACATT against AKTIP	inactive: -0.194
GGAAUUAUCUGUUUGGACATT against MIER1	inactive: 0.0271
GUGCAGAAGCGACAAAUGATT against TXK	inactive: -0.109
GAAGGAUAUUUAGAGCGGATT against MYST3	inactive: -0.49
